Results are given in words; binding and its absence hold for the method and conditions named. In cells and extracts the contact can be indirect. Some entries that bind do so weakly or less than the wild type.
Target: hepatocyte growth factor receptor (HGFR), endogenous in CL1-5 cells (human) (UniProt P08581)
Assay: co-IP from CL1-5 cells expressing FLAG-tagged ENO1

Amino acid sequences for entries named in this document (tags omitted). Residues count along the entry.
UniProt P08581, residues 25-1390: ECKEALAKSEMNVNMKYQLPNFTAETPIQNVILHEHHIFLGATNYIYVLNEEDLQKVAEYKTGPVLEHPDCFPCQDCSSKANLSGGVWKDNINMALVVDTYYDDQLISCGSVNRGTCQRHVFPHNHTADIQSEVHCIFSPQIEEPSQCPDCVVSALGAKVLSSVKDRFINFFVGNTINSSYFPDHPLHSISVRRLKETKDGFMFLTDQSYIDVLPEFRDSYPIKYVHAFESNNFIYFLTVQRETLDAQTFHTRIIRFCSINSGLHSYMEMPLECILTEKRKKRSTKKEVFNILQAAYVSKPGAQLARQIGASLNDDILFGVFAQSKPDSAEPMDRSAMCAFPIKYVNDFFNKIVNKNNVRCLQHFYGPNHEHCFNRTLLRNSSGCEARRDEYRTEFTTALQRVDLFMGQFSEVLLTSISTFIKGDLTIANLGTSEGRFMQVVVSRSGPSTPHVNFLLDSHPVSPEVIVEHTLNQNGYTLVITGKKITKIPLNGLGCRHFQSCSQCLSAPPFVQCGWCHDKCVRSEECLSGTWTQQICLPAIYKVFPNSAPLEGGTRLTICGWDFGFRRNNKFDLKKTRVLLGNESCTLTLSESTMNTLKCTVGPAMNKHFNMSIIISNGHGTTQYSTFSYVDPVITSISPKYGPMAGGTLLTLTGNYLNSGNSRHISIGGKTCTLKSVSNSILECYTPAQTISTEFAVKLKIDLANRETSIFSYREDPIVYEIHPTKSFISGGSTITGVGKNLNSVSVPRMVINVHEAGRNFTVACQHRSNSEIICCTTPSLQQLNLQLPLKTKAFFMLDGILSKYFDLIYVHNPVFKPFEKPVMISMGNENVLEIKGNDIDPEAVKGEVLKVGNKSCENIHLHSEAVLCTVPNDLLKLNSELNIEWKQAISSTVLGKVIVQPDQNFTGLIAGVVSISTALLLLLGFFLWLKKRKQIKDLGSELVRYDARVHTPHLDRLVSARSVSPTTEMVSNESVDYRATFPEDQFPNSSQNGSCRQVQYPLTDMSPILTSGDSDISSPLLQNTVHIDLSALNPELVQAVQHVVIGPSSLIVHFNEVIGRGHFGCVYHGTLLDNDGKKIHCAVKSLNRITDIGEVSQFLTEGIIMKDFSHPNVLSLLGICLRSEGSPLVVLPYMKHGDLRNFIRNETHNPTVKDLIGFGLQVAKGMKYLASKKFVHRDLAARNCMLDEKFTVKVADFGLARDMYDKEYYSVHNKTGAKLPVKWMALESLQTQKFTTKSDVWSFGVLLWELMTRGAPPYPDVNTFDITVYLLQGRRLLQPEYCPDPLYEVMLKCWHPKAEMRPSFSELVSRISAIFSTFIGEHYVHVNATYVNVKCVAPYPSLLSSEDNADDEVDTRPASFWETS
UniProt P06733: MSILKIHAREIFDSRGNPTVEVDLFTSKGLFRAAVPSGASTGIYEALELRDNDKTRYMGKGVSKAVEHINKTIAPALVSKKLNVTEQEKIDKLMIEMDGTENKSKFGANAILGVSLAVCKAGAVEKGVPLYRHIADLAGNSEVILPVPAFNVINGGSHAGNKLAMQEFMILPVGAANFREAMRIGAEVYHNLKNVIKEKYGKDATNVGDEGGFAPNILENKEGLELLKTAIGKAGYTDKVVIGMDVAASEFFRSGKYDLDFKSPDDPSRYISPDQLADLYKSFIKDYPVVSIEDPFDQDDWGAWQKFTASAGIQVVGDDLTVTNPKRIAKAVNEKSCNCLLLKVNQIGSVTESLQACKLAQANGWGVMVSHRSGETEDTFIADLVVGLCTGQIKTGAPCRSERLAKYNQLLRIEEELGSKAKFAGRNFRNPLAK

- binding: binds
Substance: FLAG-tagged ENO1 (from UniProt P06733 1-434) (enzyme)

Reference: patent US20240174765A1 (ACADEMIA SINICA, published 2024)
